# Laboratory results: the supplement of paper PMC4604168 (melanoma cell lines)
# This is one part of the list. Single values are uncertain, as repeats are few or missing.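 Cells were imaged in 1,536-well plates, and nuclei stained with an antibody against cleaved PARP were counted against all DNA-stained nuclei to give the apoptosis fraction. Screening doses were chosen to leave most cells alive, and resting and induced cleaved-PARP levels differ strongly between cell lines.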
# Legend:
# Assay in all cases: cleaved PARP positive nuclei fraction relative to DMSO control; melanoma cells; higher = more apoptosis
# Conditions in all cases: library dose: low library concentration; 72 h
# [1] = tested on: 501Mel
# [2] = tested on: A101D
# [3] = tested on: A2058
# [4] = tested on: A375
# [5] = tested on: C32
# [6] = tested on: CBRC008 (line from a melanoma biopsy)
# [7] = tested on: CBRC014 (line from a melanoma biopsy)
# [8] = tested on: CBRC016 (line from a melanoma biopsy)
# [9] = tested on: CBRC017 (line from a melanoma biopsy)
# [10] = tested on: CBRC034 (line from a melanoma biopsy)
# [11] = tested on: COLO792
# [12] = tested on: COLO800
# [13] = tested on: COLO829
# [14] = tested on: G361
# [15] = tested on: IPC-298
# [16] = tested on: IST-MEL1
# [17] = tested on: LB2518-MEL
# [18] = tested on: LOXIMVI
# [19] = tested on: MEL-HO
SMILES,cleaved PARP positive nuclei fraction [1],cleaved PARP positive nuclei fraction [2],cleaved PARP positive nuclei fraction [3],cleaved PARP positive nuclei fraction [4],cleaved PARP positive nuclei fraction [5],cleaved PARP positive nuclei fraction [6],cleaved PARP positive nuclei fraction [7],cleaved PARP positive nuclei fraction [8],cleaved PARP positive nuclei fraction [9],cleaved PARP positive nuclei fraction [10],cleaved PARP positive nuclei fraction [11],cleaved PARP positive nuclei fraction [12],cleaved PARP positive nuclei fraction [13],cleaved PARP positive nuclei fraction [14],cleaved PARP positive nuclei fraction [15],cleaved PARP positive nuclei fraction [16],cleaved PARP positive nuclei fraction [17],cleaved PARP positive nuclei fraction [18],cleaved PARP positive nuclei fraction [19]
"Cc1cn(-c2cc(NC(=O)c3ccc(C)c(Nc4nccc(-c5cccnc5)n4)c3)cc(C(F)(F)F)c2)cn1 [nilotinib] + Nc1nc(F)nc2c1ncn2[C@@H]1O[C@H](CO)[C@@H](O)[C@@H]1O [fludarabine] (first compound 0.2 µM, partner dose 0.2 µM)",11400%,98.9%,130%,5890%,320%,61.7%,93.5%,238%,131%,39.1%,65.3%,75%,140%,116%,47.3%,152%,138%,90%,272%
"Cc1ccc(Nc2nccc(N(C)c3ccc4c(C)n(C)nc4c3)n2)cc1S(N)(=O)=O [Pazopanib] + CS(=O)(=O)c1ccc(C(=O)Nc2ccc(Cl)c(-c3ccccn3)c2)c(Cl)c1 [vismodegib] (first compound 0.4 µM, partner dose 1 µM)",90.4%,96.2%,20.4%,251%,70.3%,107%,114%,95.1%,112%,66.8%,61.8%,121%,89.1%,59.8%,35.2%,127%,112%,84.7%,297%
"O=C(Nc1cc(C(F)(F)F)cc(C(F)(F)F)c1)c1cc(Cl)ccc1O + CN(c1ncccc1CNc1nc(Nc2ccc3c(c2)CC(=O)N3)ncc1C(F)(F)F)S(C)(=O)=O [PF562271] (first compound 0.016 µM, partner dose 0.08 µM)",34.6%,55.1%,82.4%,88%,75.4%,186%,113%,78.7%,127%,164%,89.5%,72.1%,100%,65.5%,41.4%,396%,92.5%,159%,43.9%
"COc1cc([C@@H]2c3cc4c(cc3[C@@H](O[C@@H]3O[C@@H]5CO[C@@H](C)O[C@H]5[C@H](O)[C@H]3O)[C@H]3COC(=O)[C@H]23)OCO4)cc(OC)c1O [etoposide] + C=CCNC1=C2C[C@@H](C)C[C@H](OC)[C@H](O)[C@@H](C)/C=C(\C)[C@H](OC(N)=O)[C@@H](OC)/C=C\C=C(/C)C(=O)NC(=CC1=O)C2=O [Tanespimycin] (first compound 0.02 µM, partner dose 0.002 µM)",77.7%,50.3%,165%,49.3%,106%,78.3%,95.1%,97.9%,118%,36.5%,113%,84.9%,57.2%,215%,78.8%,28.6%,108%,174%,101%
"Cc1cc(Nc2cc(N3CCN(C)CC3)nc(Sc3ccc(NC(=O)C4CC4)cc3)n2)n[nH]1 [Tozasertib] + O=C(/C=C/c1cccnc1)NCCCCC1CCN(C(=O)c2ccccc2)CC1 [FK866] (first compound 0.006 µM, partner dose 0.01 µM)",39.8%,155%,57.5%,192%,89.1%,5380%,88.8%,990%,419%,2850%,341%,102%,165%,1230%,601%,172%,51.5%,50.6%,296%
"Cc1cc(Nc2cc(N3CCN(C)CC3)nc(Sc3ccc(NC(=O)C4CC4)cc3)n2)n[nH]1 [Tozasertib] + Nc1ccn([C@@H]2O[C@H](CO)[C@@H](O)C2(F)F)c(=O)n1 [gemcitabine] (first compound 0.006 µM, partner dose 0.0004 µM)",75.9%,92.1%,41%,38.3%,71.3%,59.3%,97.5%,258%,138%,81.7%,146%,240%,127%,175%,47.1%,265%,114%,70.1%,126%
"O=C(Nc1cc(C(F)(F)F)cc(C(F)(F)F)c1)c1cc(Cl)ccc1O + Cn1nnc2c(C(N)=O)ncn2c1=O [temozolomide] (first compound 0.016 µM, partner dose 2 µM)",108%,127%,43.8%,158%,78.8%,142%,94.3%,67.3%,98.4%,39.2%,183%,69.4%,169%,76.5%,87.7%,145%,194%,41.2%,131%
"N#CC[C@H](C1CCCC1)n1cc(-c2ncnc3[nH]ccc23)cn1 [ruxolitinib] + CO[C@H]1C[C@@H]2CC[C@@H](C)[C@@](O)(O2)C(=O)C(=O)N2CCCC[C@H]2C(=O)O[C@H]([C@H](C)C[C@@H]2CC[C@@H](OCCO)[C@H](OC)C2)CC(=O)[C@H](C)/C=C(\C)[C@@H](O)[C@@H](OC)C(=O)[C@H](C)C[C@H](C)/C=C/C=C/C=C/1C [everolimus] (first compound 1 µM, partner dose 0.02 µM)",163%,165%,97.6%,782%,45.8%,106%,90.5%,95.5%,112%,66.6%,90.3%,43.4%,93%,171%,37.8%,109%,27.1%,169%,181%
"O=c1[nH]nc(Sc2ncc([N+](=O)[O-])s2)n1-c1ccc2c(c1)OCCO2 + Cn1c(=O)n(-c2ccc(C(C)(C)C#N)cc2)c2c3cc(-c4cnc5ccccc5c4)ccc3ncc21 [NVP-BEZ235] (first compound 0.2 µM, partner dose 0.004 µM)",221%,132%,86.1%,90.7%,73.5%,101%,180%,68.9%,109%,133%,85%,393%,92.5%,138%,56.7%,135%,62.3%,84.4%,41.5%
"Cc1ccc(Nc2nccc(N(C)c3ccc4c(C)n(C)nc4c3)n2)cc1S(N)(=O)=O [Pazopanib] + CCN(CC)CCNC(=O)c1c(C)[nH]c(/C=C2\C(=O)Nc3ccc(F)cc32)c1C [sunitinib] (first compound 0.4 µM, partner dose 0.4 µM)",104%,90.4%,80.8%,269%,74.3%,110%,108%,72.6%,88.1%,66.5%,69.8%,101%,127%,134%,106%,124%,165%,72.1%,88%
"O=C(/C=C/c1cccnc1)NCCCCC1CCN(C(=O)c2ccccc2)CC1 + NC1(c2ccc(-c3nc4ccn5c(=O)[nH]nc5c4cc3-c3ccccc3)cc2)CCC1 [MK2206] (first compound 0.01 µM, partner dose 0.4 µM)",57.2%,194%,116%,160%,70.9%,2230%,110%,475%,452%,658%,351%,202%,212%,3680%,112%,108%,131%,75.5%,275%
"CCCCCCCCCCCCCCCCCCOP(=O)([O-])OC1CC[N+](C)(C)CC1 [Perifosine] + Cc1ccc(Nc2nccc(N(C)c3ccc4c(C)n(C)nc4c3)n2)cc1S(N)(=O)=O [Pazopanib] (first compound 0.4 µM, partner dose 0.4 µM)",97.7%,93.7%,255%,250%,65.9%,125%,135%,79.3%,277%,77.5%,135%,100%,158%,109%,51.5%,87.6%,95.4%,116%,156%
"O=C(/C=C/c1cccnc1)NCCCCC1CCN(C(=O)c2ccccc2)CC1 + CCN(CC)CCNC(=O)c1c(C)[nH]c(/C=C2\C(=O)Nc3ccc(F)cc32)c1C [sunitinib] (first compound 0.01 µM, partner dose 0.4 µM)",338%,97.4%,71%,147%,35.7%,3880%,107%,702%,758%,2350%,484%,468%,299%,4050%,234%,292%,313%,47.8%,35.2%
"Cc1cc(Nc2cc(N3CCN(C)CC3)nc(Sc3ccc(NC(=O)C4CC4)cc3)n2)n[nH]1 [Tozasertib] + CC(=O)c1c(C)c2cnc(Nc3ccc(N4CCNCC4)cn3)nc2n(C2CCCC2)c1=O [palbociclib] (first compound 0.006 µM, partner dose 0.04 µM)",100%,337%,86.4%,437%,201%,33.7%,113%,21.4%,116%,121%,75.8%,116%,59.9%,70.5%,95.9%,67.1%,70.6%,52.7%,200%
"COc1cc([C@@H]2c3cc4c(cc3[C@@H](O[C@@H]3O[C@@H]5CO[C@@H](C)O[C@H]5[C@H](O)[C@H]3O)[C@H]3COC(=O)[C@H]23)OCO4)cc(OC)c1O [etoposide] + C[C@]1(c2nc3c(C(N)=O)cccc3[nH]2)CCCN1 [Veliparib] (first compound 0.02 µM, partner dose 1.4 µM)",70.6%,100%,149%,212%,72.1%,33.6%,98.8%,79.8%,131%,67.3%,72.9%,74.6%,124%,122%,91.9%,69.3%,48%,130%,74.5%
"CC[C@]1(O)C[C@H]2CN(CCc3c([nH]c4ccccc34)[C@@](C(=O)OC)(c3cc4c(cc3OC)N(C=O)[C@H]3[C@@](O)(C(=O)OC)[C@H](OC(C)=O)[C@]5(CC)C=CCN6CC[C@]43[C@@H]65)C2)C1 [vincristine] + C=CCNC1=C2C[C@@H](C)C[C@H](OC)[C@H](O)[C@@H](C)/C=C(\C)[C@H](OC(N)=O)[C@@H](OC)/C=C\C=C(/C)C(=O)NC(=CC1=O)C2=O [Tanespimycin] (first compound 0.0001 µM, partner dose 0.002 µM)",93%,74.9%,378%,139%,124%,195%,104%,75%,146%,74.3%,94.2%,103%,153%,146%,90.8%,95.1%,139%,124%,60.2%

# Part of the list above, limited to cleaved PARP positive nuclei fraction [18]:
SMILES | cleaved PARP positive nuclei fraction [18]
O=C(/C=C/c1cccnc1)NCCCCC1CCN(C(=O)c2ccccc2)CC1 + CCN(CC)CCNC(=O)c1c(C)[nH]c(/C=C2\C(=O)Nc3ccc(F)cc32)c1C [sunitinib] (first compound 0.01 µM, partner dose 0.4 µM) | 47.8%
Cc1cc(Nc2cc(N3CCN(C)CC3)nc(Sc3ccc(NC(=O)C4CC4)cc3)n2)n[nH]1 [Tozasertib] + CC(=O)c1c(C)c2cnc(Nc3ccc(N4CCNCC4)cn3)nc2n(C2CCCC2)c1=O [palbociclib] (first compound 0.006 µM, partner dose 0.04 µM) | 52.7%
